Data as given in PubChem BioAssay AID540276 (National Center for Advancing Translational Sciences (NCATS), 2011).
Hit rate of the full screen: of about 300,000 compounds, about 5,400 (1.8%) were called active. The inconclusive results got no clear call from the source; some entries with a clear call stand among them for comparison. The call rests on the fitted dose curve; tested in HEK293 cells. Where the call is inconclusive, the potency comes from a doubtful curve fit.

Experiment: qHTS for inhibitors of binding or entry into cells for Marburg Virus
Conditions: Marburg virus pseudotyped entry inhibition, cell reporter; activity change, negative = inhibition: at 37.8 µM (top of the series) unless noted
On the % scale 0 is the no-effect control and ±100 the full control effect; potency means the concentration at half of the fitted maximal effect.

Compound | Potency | activity change, negative = inhibition
CC(C)c1ccc(-n2cccc2/C=C2/C(=N)N3C=CSC3=NC2=O)cc1 | inconclusive: 0.126 µM [inhibitor, full curve, poor fit] | –
Cc1ccc(-c2noc(C3CCCN(C(=O)c4cccc([N+](=O)[O-])c4)C3)n2)o1 (stereo not drawn) | – | inactive: 11.8% [at 46.1 µM]
COc1cccc(/C=N/n2c(SC)nnc2-c2ccccc2)c1OC | inconclusive: 35.5 µM [inhibitor, single point] | –
O=C(c1ccccc1)c1ccc(COC(=O)c2cnccn2)cc1 | inconclusive: 2.24 µM [activator, full curve] | –
OC1C2(Cc3ccccc3)CN3CCN(C2)CC1(Cc1ccccc1)C3 (stereo not drawn) | – | inactive: -20.1%
COCc1cc(CN(C)C(=O)c2oc3c(F)cccc3c2C)[nH]n1 | – | inactive: 0.705% [at 46.1 µM]
COC(=O)N/N=C\C=C\c1ccc2c(c1)OCO2 | inconclusive: 7.08 µM [activator, partial curve] | –
Cc1ccc2c(CN3CCC(C)CC3)cc(=O)oc2c1 | – | inactive: -17.5%
Cn1c(-c2ccccc2)cnc1NCc1cc(Cl)ccc1O | inconclusive: 1 µM [inhibitor, partial curve, poor fit] | –
COc1cccc(-c2c(NC(=O)c3ccco3)n(-c3ccc(C)cc3)nc(C)c2=O)c1 | inconclusive: 6.51 µM [inhibitor, single point] | –
NS(=O)(=O)c1ccc(N/N=C/c2ccc(O)c(O)c2O)c([N+](=O)[O-])c1 | inconclusive: 32.6 µM [inhibitor, partial curve, poor fit] | –
CCN(CC)c1ccc(NC(=O)Nc2ccccc2C(F)(F)F)cc1 | – | inactive: 6.82%
C/C(CCN1CCCCc2nc(C)c(C)cc21)=N\O[C@H](C)c1cn([C@H](CO)Cc2ccccc2)nn1 | inconclusive: 0.0335 µM [inhibitor, full curve, poor fit] | –
CCOC(=O)Cc1c(C)nc2c(-c3cccc(Br)c3)c[nH]n2c1=O | inconclusive: 22.4 µM [inhibitor, single point] | –
C/C(=N\Nc1ccccc1C(=O)O)c1ccncc1 | inconclusive: 25.1 µM [inhibitor, single point] | –
CCOCCCNC(=O)CSc1nc2nc(C)c(Cc3ccccc3)c(C)n2n1 | – | inactive: 5.84% [at 46.1 µM]
Cc1cc(=O)n(C(C)Cc2ccccc2)n1C(C)Cc1ccccc1 (stereo not drawn) | inconclusive: 28.2 µM [inhibitor, partial curve, poor fit] | –
O=C(c1ccc2c(c1)OCO2)N(Cc1cccs1)C1(C(=O)NC2CCCCC2)CCCCC1 | active: 8.91 µM | –
CC(C)CC(COCc1ccc([N+](=O)[O-])cc1)N1CCN(C(=O)c2ccc(C(F)(F)F)cc2)CCC1=O (stereo not drawn) | inconclusive: 23.1 µM [inhibitor, single point] | –
CCOC(=O)c1cc2c(ccn2C)n1Cc1ccc(C#N)cc1 | – | inactive: 16.1%
CCC(C)(C)NC(=O)C(c1ccccn1)N(C(=O)c1csnn1)C1CCCCC1 (stereo not drawn) | inconclusive: 35.5 µM [inhibitor, single point] | –
Nn1cnnc1SCC(=O)Nc1ccc2c(c1)OCCO2 | – | inactive: 17.6%
CCC1CCCCN1CCCNC(=O)Cn1cnc2sc(C)c(S(=O)(=O)N3CC(C)CC(C)C3)c2c1=O (stereo not drawn) | – | inactive: -23.7% [at 46.1 µM]

Compound | Potency | activity change, negative = inhibition
Cc1[nH]n(-c2ccccc2)c(=O)c1/C=N/Nc1nncc(-c2ccccc2)n1 | active: 4.11 µM | –
O=C(Nc1ccc(F)cc1)C(NC1CCCCC1)c1ccccc1 (stereo not drawn) | inconclusive: 12.6 µM [inhibitor, partial curve, poor fit] | –
Cc1cccc(N(CC(N)=O)C2SC(=O)N(Cc3cccc(C(=O)O)c3)C2=O)c1 (stereo not drawn) | – | inactive: 0.0106% [at 46.1 µM]
CN1CCC(=NNc2ncnc3sc4c(c23)CCCC4)CC1 | inconclusive: 0.631 µM [inhibitor, full curve, poor fit] | –
CC(Cc1ccco1)NC(=O)c1ccc(C(F)(F)F)cc1 (stereo not drawn) | inconclusive: 35.5 µM [inhibitor, single point] | –
CN1C2CCC1CC(OC(c1ccccc1)c1ccc(Cl)cc1)C2 (stereo not drawn) | active: 3.16 µM | –
Cc1ccc(NC(=O)CNc2cccc(S(=O)(=O)N3CCCCC3)c2)cc1F | inconclusive: 20 µM [inhibitor, partial curve, poor fit] | –
C#CCSc1nnc(-c2ccc(C)cc2)o1 | inconclusive: 35.5 µM [inhibitor, single point] | –
Cc1nc(NC(=O)CSc2nc(N)cc(N)n2)sc1C | – | inactive: 4.93% [at 46.1 µM]
CCCCOC(=O)c1ccc(NC(=O)C(CCS(C)(=O)=O)NC(C)=O)cc1 (stereo not drawn) | inconclusive: 0.562 µM [activator, full curve, poor fit] | –
COCc1cc(Sc2ccc(Cl)cc2Cl)nc(-c2ccccc2)n1 | – | inactive: -22.7%
COCCNC(=O)CCCn1c(SCc2ccccc2Cl)nc2c(sc3ccccc32)c1=O | – | inactive: -15% [at 46.1 µM]
COc1ccc(N(C)S(=O)(=O)c2cccc(C(=O)OC(C(=O)Nc3cc(C)cc(C)c3)c3ccccc3)c2)cc1 (stereo not drawn) | inconclusive: 15.8 µM [inhibitor, partial curve, poor fit] | –
CCOC(=O)c1sc2c(c1C)C(c1cccs1)C1=C(CCCC1=O)N2 (stereo not drawn) | inconclusive: 35.5 µM [inhibitor, single point] | –
Cc1nn(-c2ccccc2)c(C)c1NC(=O)COC(=O)c1cccc(OC(F)F)c1 | inconclusive: 35.5 µM [activator, single point] | –
CCN(Cc1ccccc1)C(c1cc2ccc(C)cc2[nH]c1=O)c1nnnn1CCOC (stereo not drawn) | inconclusive: 0.73 µM [inhibitor, full curve, poor fit] | –
CN(CC1COc2ccccc2O1)C(=O)c1cccc(S(=O)(=O)N2CCCC2)c1 (stereo not drawn) | – | inactive: -18.9%
COc1ccc(OC)c(C2C(C(=O)N(C)C)=C(C)Nc3nc4ccccc4n32)c1 (stereo not drawn) | – | inactive: 2.71%
COc1cccc(OCC(O)CNC(=O)c2oc3c(C)c(C)ccc3c2C)c1 (stereo not drawn) | inconclusive: 2.24 µM [inhibitor, partial curve, poor fit] | –
CCCCNS(=O)(=O)c1ccc2nc(SCC(=O)Nc3ccccc3Cl)[nH]c2c1 | inconclusive: 5.62 µM [inhibitor, full curve] | –
O=C(Nc1ccccc1Br)c1ccc(OC(=S)N2CCOCC2)cc1 | inconclusive: 3.16 µM [activator, partial curve, poor fit] | –
CCc1ccc(NC(=O)C(CC)Sc2nc3cc4c(cc3c(=O)n2Cc2ccco2)OCO4)cc1 (stereo not drawn) | inconclusive: 29.1 µM [inhibitor, single point] | –
Cc1cccc(-n2cnc(C(=O)N/N=C\c3ccc(Br)cc3)c2)n1 | inconclusive: 1.41 µM [inhibitor, partial curve, poor fit] | –

3 compounds drawn at random from the list so far, as already listed:
Compound | Potency | activity change, negative = inhibition
C#CCSc1nnc(-c2ccc(C)cc2)o1 | inconclusive: 35.5 µM [inhibitor, single point] | –
O=C(Nc1ccc(F)cc1)C(NC1CCCCC1)c1ccccc1 (stereo not drawn) | inconclusive: 12.6 µM [inhibitor, partial curve, poor fit] | –
COc1ccc(N(C)S(=O)(=O)c2cccc(C(=O)OC(C(=O)Nc3cc(C)cc(C)c3)c3ccccc3)c2)cc1 (stereo not drawn) | inconclusive: 15.8 µM [inhibitor, partial curve, poor fit] | –

Next records follow.

Compound | Potency | activity change, negative = inhibition
Cc1cc(C)c2nc(NC(=O)c3cc(C)on3)sc2c1 | – | inactive: -0.145%
Cc1n[nH]c(=O)c2c(NC(=O)CSc3nc4ccccc4c(=O)n3C(C)C)oc(C)c12 | inconclusive: 10 µM [inhibitor, partial curve, poor fit] | –
CCOC(=O)C(C)Sc1cc(CS(=O)(=O)c2ccccc2)nc(-c2ccccc2)n1 (stereo not drawn) | – | inactive: -29.1%
COc1ccc(/C=C2/CSC/C(=C/c3ccc(OC)c(OC)c3)C2=O)cc1OC | active: 3.55 µM | –
CCN(CC)CCNC(=O)c1ccc(NC(=O)c2ccccc2-c2ccc(C(F)(F)F)cc2)cc1 | active: 2.82 µM | –
CC1CCN(CCOc2ccccc2-c2ccccc2)CC1 | inconclusive: 20.6 µM [inhibitor, single point] | –
CCC(=O)c1ccc(OCC(=O)NNC(=O)c2cc(C)oc2C)cc1 | inconclusive: 35.5 µM [inhibitor, single point] | –
COc1ccc(C2=NOC(COc3ccc4c(C)cc(=O)oc4c3)C2)c(OC)c1 (stereo not drawn) | inconclusive: 4.47 µM [inhibitor, single point] | –
COc1ccc(S(=O)(=O)Cc2ccc(C(=O)NC3CCC(C)CC3)o2)cc1 (stereo not drawn) | inconclusive: 6.31 µM [inhibitor, single point] | –
Cc1cccc(NC(=O)c2ccc(NC(=O)CC3SC(N4CCCC4)=NC3=O)cc2)n1 (stereo not drawn) | – | inconclusive: 10.7% [activator]
O=C(c1ccc(Cl)c(S(=O)(=O)N2CCc3ccccc32)c1)N1CCN(c2ccccc2O)CC1 | inconclusive: 11.2 µM [inhibitor, partial curve, poor fit] | –
Clc1nc(CN2CCCCC2)nc2sc3c(c12)CCC3 | inconclusive: 35.5 µM [inhibitor, single point] | –
COc1ccc(-n2c(=O)c3sc4ccccc4c3n(CC(=O)NC3CCCCC3)c2=O)cc1 | – | inactive: -25.7% [at 46.1 µM]
Cc1cc(C)c(NC(=O)c2ccc[n+](Cc3ccc([N+](=O)[O-])cc3)c2)c(C)c1 | inconclusive: 1 µM [inhibitor, single point] | –
CCOC(=O)c1c(C)[nH]c(C(=O)OC(C)C(=O)NCc2ccccc2)c1C (stereo not drawn) | – | inactive: 9%
C=CCn1c(SC(C)CC)nc(O)cc1=O (stereo not drawn) | inconclusive: 3.16 µM [inhibitor, full curve, poor fit] | –
O=C(C1=C(O)C(=O)N(CCc2ccccc2)C1c1ccncc1)c1cc2ccccc2o1 (stereo not drawn) | inconclusive: 35.5 µM [activator, single point] | –
COc1ccc(NC(=O)C2CCCN(c3nccc(C)n3)C2)cc1 (stereo not drawn) | inconclusive: 1.12 µM [inhibitor, full curve, poor fit] | –
O=C(COC(=O)Cc1ccccc1)Nc1ncc(Cl)cc1Cl | – | inactive: 0.343% [at 46.1 µM]
O=C(Cn1nnc(-c2ccccc2F)n1)Nc1cccc2ncccc12 | inconclusive: 1 µM [inhibitor, partial curve, poor fit] | –
Cc1ccc(S(=O)(=O)N(CCC(=O)O)Cc2ccc(Cl)cc2)cc1 | inconclusive: 5.17 µM [activator, partial curve, poor fit] | –
COc1ccc(-c2csc(N3CCSCC3)n2)cc1 | inconclusive: 25.1 µM [inhibitor, single point] | –
